# Measured values published in patent US20250195556A1, “COMPOSITIONS, KITS, AND METHODS TO INDUCE ACQUIRED CYTORESISTANCE USING STRESS PROTEIN INDUCERS” (FRED HUTCHINSON CANCER RESEARCH CENTER, priority 2014, published 2025).
# At least one compound was matched to its structure with a doubt left.
# Test system: HO-1
# Assay: Cardiac HO-1 mRNA and protein after IV N-Mgb, SnPP or both
# Assay type: in vivo, mice
# Conditions: 4 h after Rx; control 1.50
# Protocol: Thirty-two mice were divided into 4 equal groups: (1) control mice; (2) mice treated with 1 mg of N-Mgb injection (as a bolus through the tail vein); (3) mice treated with […] of SnPP (via tail vein); and (4) mice treated with combined N-Mgb 1 SnPP. After either 4 hours (n=16) or 18 hours (n=16), the mice were deeply anesthetized with pentobarbital (50 mg/kg), the abdomen was opened through a midline abdominal incision, and the kidneys were removed. To determine potential effects on extrarenal organs, a liver lobe and the heart were also removed. The tissues were iced and then extracted for protein and RNA (RNeasy Plus Mini; Qiagen, Valencia, California) and subjected to enzyme linked immunosorbent assay (ELISA) and reverse transcriptase polymerase chain reaction (RT-PCR) for HO-1, haptoglobin, and IL-10 protein and messenger RNAs (mRNAs). Zager et al. J Am Soc Nephrol 2014; 25:998-1012; Zager et al. Am J Physiol 2012; 303: F139-48. As an assessment of renal function, control mice and the 18 hour after N-Mgb+SnPP-treated mice had blood urea nitrogen (BUN) and plasma creatinine levels measured. Additionally, transverse 10% formalin fixed kidney sections ([…]) were cut and stained with hematoxylin and eosin (H&E) and periodic acid Schiff (PAS) to further assess potential injury.
smiles,measurement,value
"C=Cc1c2[n-]c(c1C)/C=c1\[n-]/c(c(C)c1C=C)=C\c1[n-]c(c(CCC(=O)O)c1C)/C=c1\[n-]c(c(C)c1CCC(=O)O)=C2.[Sn+4] [SnPP, tin protoporphyrin, reference compound]",Cardiac Protein: HO-1,1.310.13
